Source: PubChem BioAssay AID330 (DTP/NCI, 2004)
The list does not hold the whole screen: it gathers tests that were run many times, whatever their T/C, doses with no T/C, and many T/C values between a quarter and a half above the control. Other doses and runs of a compound stand elsewhere. T/C gives the treated animals as a percentage of the vehicle group. Some entries give survivors of the animals treated and no T/C: the source holds a T/C of zero for them, seemingly a mark for toxic or unscored doses. Some doses without a T/C left all or most animals alive at the check, yet need not have been tolerated: the source hardly ever lists a survival T/C far under the control, and the zero likely stands for such cases as well. Counts of survivors are from the toxicity check (mostly the fifth day) where no day follows; animals may have died later. Schedules are NCI's codes, taken here to give the interval after Q, in days (D) or hours (H), and the number of doses after X. Some entries hold several experiments; the values are given in rising order. Brackets with × count equal records among those shown. Where survival is the endpoint, the PubChem record calls one and a half times the control and up active, and a quarter to a half above the control has no call in these data; cut-offs in other NCI protocols can differ. Some schedule codes hold Z or #, which are not explained here. Some T/C values carry the count of animals alive at the toxicity check (mostly the fifth day); where none is given, no animal had died by that day.

Test system: P388 leukemia ip, CD2F1 mice, survival T/C
Test: NCI In Vivo Anticancer Drug Screen. Data for tumor model P388 Leukemia (intraperitoneal) in CD2F1 (CDF1) mice
Details: T/C endpoint: median survival time, higher T/C = longer survival
[1] = dose: 12.5 mg/kg/injection, schedule: Q01DX005 (ip), vehicle: Klucel (hydroxypropylcellulose) (HPC), evaluated on day 20
[2] = dose: 12.5 mg/kg/injection, schedule: Q01DX005 (ip), vehicle: Klucel (hydroxypropylcellulose) (HPC), evaluated on day 30
[3] = dose: 25.0 mg/kg/injection, schedule: Q01DX005 (ip), vehicle: Klucel (hydroxypropylcellulose) (HPC)
[4] = dose: 50.0 mg/kg/injection, schedule: Q01DX005 (ip), vehicle: Klucel (hydroxypropylcellulose) (HPC)
[5] = dose: 50.0 mg/kg/injection, schedule: Q01DX009 (ip), vehicle: saline
[6] = dose: 200.0 mg/kg/injection, schedule: Q01DX009 (ip), vehicle: saline with Tween-80
[7] = dose: 400.0 mg/kg/injection, schedule: Q01DX001 (ip), vehicle: saline with Tween-80
[8] = dose: 240.0 mg/kg/injection, schedule: Q01DX005 (ip), vehicle: saline with Tween-80
[9] = dose: 50.0 mg/kg/injection, schedule: Q01DX009 (ip), vehicle: Klucel (hydroxypropylcellulose) (HPC)
[10] = dose: 100.0 mg/kg/injection, schedule: Q01DX005 (ip), vehicle: Klucel (hydroxypropylcellulose) (HPC)
[11] = dose: 200.0 mg/kg/injection, schedule: Q01DX005 (ip), vehicle: Klucel (hydroxypropylcellulose) (HPC)

In the case of `CCOc1ccc(/C=N/NC(=O)C(=O)N/N=C/c2ccc(OCC)c(OCC)c2)cc1OCC`, the T/C [1] is reported as 92 and 126 % of control, the T/C [2] is reported as 86 and 94 % of control and the T/C (dose: 25.0 mg/kg/injection, schedule: Q01DX005 (ip), vehicle: Klucel (hydroxypropylcellulose) (HPC), evaluated on day 20) is reported as 137 % of control. The T/C (dose: 25.0 mg/kg/injection, schedule: Q01DX005 (ip), vehicle: Klucel (hydroxypropylcellulose) (HPC), evaluated on day 30) was 87 and 88 % of control, the survivor count [3] was 6 of 6 and the T/C (dose: 50.0 mg/kg/injection, schedule: Q01DX005 (ip), vehicle: Klucel (hydroxypropylcellulose) (HPC), evaluated on day 20) was 91 and 135 % of control. For the same compound, the T/C (dose: 50.0 mg/kg/injection, schedule: Q01DX005 (ip), vehicle: Klucel (hydroxypropylcellulose) (HPC), evaluated on day 30) was 86 % of control, the survivor count [4] was 6 of 6 and the survivor count (dose: 100.0 mg/kg/injection, schedule: Q01DX009 (ip), vehicle: Klucel (hydroxypropylcellulose) (HPC)) was 6 of 6.
With `CCCCCCCCCCCCCCCC[N+](C)(C)CCNC(=O)C1CSC(C)(C)N1C=O` (stereo not given) the survivor count [5] was 5 of 6.
`c1ccc2c(NCCCCCCCCCCNc3c4ccccc4nc4ccccc34)c3ccccc3nc2c1` was tested, and the T/C (dose: 2.5 mg/kg/injection, schedule: Q## X009 (ip), vehicle: lactic acid) was 133 % of control.
In the case of `CCCCCCCCCCCCCCCCCC(=O)O.[Co]`, the T/C [6] is reported as 125 [5 of 6 alive] and 129 % of control [4 of 6 alive] and the survivor count (dose: 400.0 mg/kg/injection, schedule: Q01DX009 (ip), vehicle: saline with Tween-80) is reported as 0 of 6 and 2 of 6.
In the case of `CCN(CC)Cc1c(C)[nH]c2cc(Cl)ccc2c1=O`, the survivor count (dose: 200.0 mg/kg/injection, schedule: Q01DX001 (ip), vehicle: saline with Tween-80) is reported as 3 of 6 and the survivor count [7] is reported as 0 of 6.
For `Cc1cccc(Cl)c1NC(=O)NCCCN1CCCCC1C` (stereo not given), the survivor count [8] was 0 of 6.
With `Fc1ccc(CSC(=S)Nc2cccc(C(F)(F)F)c2)cc1` the survivor count (dose: 200.0 mg/kg/injection, schedule: Q01DX009 (ip), vehicle: suspension in saline) was 6 of 6.
In the case of `O=C(Cn1nnc2ccccc21)N1CCN(c2ccccc2)CC1`, the survivor count [8] is reported as 6 of 6.
In the case of `Cn1c(=O)c2nc3c(=O)n(C)c(=O)n(C)c3nc2n(C)c1=O`, the T/C (dose: 25.0 mg/kg/injection, schedule: Q01DX009 (ip), vehicle: Klucel (hydroxypropylcellulose) (HPC)) is reported as 126 % of control, the T/C [9] is reported as 129 % of control [5 of 6 alive] and the survivor count [9] is reported as 5 of 6.
`COC1CC2C=C(C)/C=C/C=C/C(=O)NC(c3ccccc3)C/C=C/CCC(O)CC(=O)C2=C1O` (stereo not given) was tested, and the T/C (dose: 3.12 mg/kg/injection, schedule: Q01DX005 (ip), vehicle: Klucel (hydroxypropylcellulose) (HPC), evaluated on day 20) was 117 % of control, the T/C (dose: 3.12 mg/kg/injection, schedule: Q01DX005 (ip), vehicle: Klucel (hydroxypropylcellulose) (HPC), evaluated on day 30) was 97, 100, 114, 122 % of control and the T/C (dose: 6.25 mg/kg/injection, schedule: Q01DX005 (ip), vehicle: Klucel (hydroxypropylcellulose) (HPC), evaluated on day 20) was 129 % of control. The T/C (dose: 6.25 mg/kg/injection, schedule: Q01DX005 (ip), vehicle: Klucel (hydroxypropylcellulose) (HPC), evaluated on day 30) was 108, 117, 118, 124 % of control, the T/C [1] was 133 % of control and the T/C [2] was 124, 127, 134, 140 % of control. For the same compound, the T/C [3] was 153 [5 of 6 alive] and 161 % of control, the survivor count [3] was 3 of 6, 5 of 5, 6 of 6 and the survivor count [4] was 0 of 5, 0 of 6 (2×), 1 of 5, 2 of 6. The survivor count [10] was 0 of 5, the survivor count [11] was 0 of 5 and the survivor count (dose: 400.0 mg/kg/injection, schedule: Q01DX005 (ip), vehicle: Klucel (hydroxypropylcellulose) (HPC)) was 0 of 5.
With `Cn1c(Cl)c(C=O)c(=O)n(C)c1=O` the survivor count (dose: 400.0 mg/kg/injection, schedule: Q04DX003 (ip), vehicle: saline with Tween-80) was 0 of 6.
`O=C(O)CS(=O)NN(c1ccccc1)c1ccccc1` (stereo not given) was tested, and the survivor count (dose: 400.0 mg/kg/injection, schedule: Q04DX002 (ip), vehicle: saline with Tween-80) was 5 of 6.
In the case of `COc1ccc2sc3c(C)ccc(NCCC4CCCN5CCCCC45)c3c(=O)c2c1` (stereo not given), the survivor count [7] is reported as 6 of 6.
In the case of `Cc1nc(Nc2ccccc2C)c2ccsc2n1`, the survivor count [11] is reported as 6 of 6.
With `CCCCNC(=S)NC(=O)c1ccccc1` the survivor count (dose: 100.0 mg/kg/injection, schedule: Q01DX009 (ip), vehicle: saline with Tween-80) was 5 of 6 and the survivor count [6] was 0 of 6.
In the case of `CC(C)=CCc1c(C)cc2cc3c(c(O)c2c1O)C(O)=CC(=O)C3(CC=C(C)C)CC=C(CO)CO` (stereo not given), the survivor count [11] is reported as 1 of 6.
`O=c1[nH]c(=O)n(C2CC(O)C(CS)O2)cc1F` (stereo not given) was tested, and the T/C [4] was 127 % of control and the T/C [10] was 129 and 140 % of control.
For `O=C1OCC/C1=C\c1ccco1`, the survivor count (dose: 200.0 mg/kg/injection, schedule: Q01DX005 (ip), vehicle: acetone) was 0 of 5.
`C=CCc1cc(OC)c(OCC(=O)O)c(OC)c1` was tested, and the survivor count (dose: 400.0 mg/kg/injection, schedule: Q04DX003 (ip), vehicle: Klucel (hydroxypropylcellulose) (HPC)) was 3 of 6.
For `CCC12C[N+]3([O-])CCc4c([nH]c5ccccc45)C(C(=O)OC)(c4cc5c(cc4OC)N(C)C4C(O)(C(=O)OC)C(OC(C)=O)C6(CC)C=CCN7CCC54C76)CC(C3)C1O2` (stereo not given), the T/C (dose: 1.0 mg/kg/injection, schedule: Q01DX001 (ip), vehicle: distilled water + Tween-80) was 128 % of control, the T/C (dose: 2.0 mg/kg/injection, schedule: Q01DX001 (ip), vehicle: distilled water + Tween-80) was 130 % of control and the T/C (dose: 4.0 mg/kg/injection, schedule: Q01DX001 (ip), vehicle: distilled water + Tween-80) was 142 % of control. The T/C (dose: 4.0 mg/kg/injection, schedule: Q01DX001 (ip), vehicle: water) was 130 % of control, the T/C (dose: 16.0 mg/kg/injection, schedule: Q01DX001 (ip), vehicle: water) was 134 % of control and the T/C (dose: 32.0 mg/kg/injection, schedule: Q01DX001 (ip), vehicle: distilled water + Tween-80) was 140 % of control.
For `CCCCCCCCCCCCC[N+]1(CC)CCCCC1`, the survivor count (dose: 3.12 mg/kg/injection, schedule: Q01DX009 (ip), vehicle: saline) was 5 of 6, the survivor count (dose: 6.25 mg/kg/injection, schedule: Q01DX009 (ip), vehicle: saline) was 5 of 6 and the survivor count (dose: 12.5 mg/kg/injection, schedule: Q01DX009 (ip), vehicle: saline) was 2 of 6. For the same compound, the survivor count [5] was 0 of 6, the survivor count (dose: 100.0 mg/kg/injection, schedule: Q01DX009 (ip), vehicle: saline) was 0 of 6 and the survivor count (dose: 200.0 mg/kg/injection, schedule: Q01DX009 (ip), vehicle: saline) was 0 of 6.
In the case of `FC(F)(F)SN1COCN(SC(F)(F)F)C1`, the survivor count (dose: 60.0 mg/kg/injection, schedule: Q01DX005 (ip), vehicle: saline) is reported as 6 of 6 and the survivor count (dose: 240.0 mg/kg/injection, schedule: Q01DX005 (ip), vehicle: saline) is reported as 6 of 6.
With `ClCCN(CCCl)c1ccc(/C=N/Nc2c3ccccc3nc3ccccc23)cc1` the survivor count (dose: 25.0 mg/kg/injection, schedule: Q01DX009 (ip), vehicle: DMSO) was 1 of 6, the survivor count (dose: 50.0 mg/kg/injection, schedule: Q01DX009 (ip), vehicle: DMSO) was 0 of 6 and the survivor count (dose: 100.0 mg/kg/injection, schedule: Q01DX009 (ip), vehicle: DMSO) was 0 of 6. The survivor count (dose: 200.0 mg/kg/injection, schedule: Q01DX009 (ip), vehicle: DMSO) was 0 of 5.
`COc1ccc2cc3cccc[n+]3cc2c1` was tested, and the survivor count (dose: 1.56 mg/kg/injection, schedule: Q01DX005 (ip), vehicle: Klucel (hydroxypropylcellulose) (HPC)) was 0 of 5, the survivor count (dose: 3.12 mg/kg/injection, schedule: Q01DX005 (ip), vehicle: Klucel (hydroxypropylcellulose) (HPC)) was 0 of 5 and the survivor count (dose: 6.25 mg/kg/injection, schedule: Q01DX005 (ip), vehicle: Klucel (hydroxypropylcellulose) (HPC)) was 0 of 5. For the same compound, the survivor count (dose: 12.5 mg/kg/injection, schedule: Q01DX005 (ip), vehicle: Klucel (hydroxypropylcellulose) (HPC)) was 0 of 5, the survivor count [3] was 0 of 5 and the survivor count [4] was 0 of 5. For the same compound, the survivor count [10] was 0 of 5 and the survivor count [11] was 0 of 5.
